{"source": "paper PMC9763448", "binders": {"B1": {"name": "PmDAM1 (protein, UniProt G1UE19 1-235)", "chain": "MKMMREKIKIKKIDNLPARQVTFSKRRRGIFKKAAELSVLCESEVAVVIFSATGKLFDYSSSSMKDVIERYQVHINGGEKFNERSIELQPEYENHIRLSKELKEKSRQLRQMKGEDLEELNFDELQKLEQLVDASLGRVIETKDERIMSEIMALERKRAELVKANKQLRQRMLFRGNIGPELMKPERLNNNFGGGGEEEGMSSESATSTTCNSAPSLSLEDDSDDVTLSLKLGLP"}}, "target": "T1, PmDAM5 (Prunus mume) (UniProt G1UE18)", "T1 sequence": "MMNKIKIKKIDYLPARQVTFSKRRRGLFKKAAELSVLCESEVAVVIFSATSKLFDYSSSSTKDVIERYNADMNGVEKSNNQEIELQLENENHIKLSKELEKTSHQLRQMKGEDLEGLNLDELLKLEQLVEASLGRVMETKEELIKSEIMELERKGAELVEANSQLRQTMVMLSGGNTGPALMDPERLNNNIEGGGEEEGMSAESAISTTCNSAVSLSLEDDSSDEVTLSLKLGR", "experiment": "two-hybrid; yeast two-hybrid; baits in pGBKT7, preys in pGADT7; baits tested for autoactivation and toxicity; growth at four levels of initial concentration; screening in triplicate", "note": "No constants are given. Whether binding was seen depends on the method and setting. Some results given as binding are weak or reduced against the parent protein; the word gives no strength.", "data": [{"binder": "B1", "values": [{"measurement": "binding", "value": "binds"}]}]}
